# Results published in PubChem BioAssay AID977622 (Broad Institute, 2014).
# Screen size: about 1,900 compounds; fewer than 10 were called active. These results got no clear call from the source, so the numbers are uncertain.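 Rule for the calls: active = Green signal of the normal strain falls at least twice as much as red signal of the resistant mutant, with overall culture growth loss under a set limit; inconclusive = no clear call, values can overlap the other calls; inactive = the rest.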
# Assay: growth inhibition of wild-type GFP E. coli, dose response, h38 mutant RFP, cherry-pick (AID 977622)
# Conditions: E. coli WT ribosome GFP fluorescence, mixed culture, 24 h; at 50 µM (top of the series)
row,SMILES,"activity change, negative = inhibition"
1,O=[N+]([O-])c1cc([N+](=O)[O-])c(Nc2ccccn2)c([N+](=O)[O-])c1,inconclusive: -4.65
